In patent US8076488B2, “Bicyclic urea derivatives useful in the treatment of cancer and other disorders” (Bayer Healthcare LLC, priority 2003, dated 2011):
Some of these results come from one statement about several compounds together. For at least one compound, name, drawing or mass did not settle the structure.

Molecular target: T1, c-Raf kinase (Lck-activated c-Raf, Raf-1) (Homo sapiens, UniProt P04049)
T1 construct: GST-c-Raf (from amino acid 302 to amino acid 648); made in house; host or cells: Sf9 insect cells (baculovirus; co-infection with full-length Lck)
Assay: c-Raf (Raf-1) biochemical assay (radioactive filtermat assay, MEK-1 substrate)
Conditions: at 1 micromolar compound, 5 μM ATP, 32° C., 1 hour
Experimental: Biological Tests c-Raf (Raf-1) Biochemical Assay Purification of Proteins Used in the Assay
The c-Raf biochemical assay was performed with a c-Raf enzyme that was activated (phosphorylated) by Lck kinase. Lck-activated c-Raf (Lck/c-Raf) was produced in Sf9 insect cells by co-infecting cells with baculoviruses expressing, under the control of the polyhedrin promoter, GST-c-Raf (from amino acid 302 to amino acid 648) and Lck (full-length). Both baculoviruses were used at the multiplicity of infection of 2.5 and the cells were harvested 48 hours post infection.
MEK-1 protein was produced in Sf9 insect cells by infecting cells with the baculovirus expressing GST-MEK-1 (full-length) fusion protein at the multiplicity of infection of 5 and harvesting the cells 48 hours post infection. Similar purification procedure was used for GST-c-Raf 302-648 and GST-MEK-1.
Transfected cells were suspended at 100 mg of wet cell biomass per mL in a buffer containing 10 mM sodium phosphate, 140 mM sodium chloride pH 7.3, 0.5% Triton X-100 and the protease inhibitor cocktail. The cells were disrupted with Polytron homogenizer and centrifuged 30,000 g for 30 minutes. The 30,000 g supernatant was applied onto GSH-Sepharose. The resin was washed with a buffer containing 50 mM Tris, pH 8.0, 150 mM NaCl and 0.01% Triton X-100. The GST-tagged proteins were eluted with a solution containing 100 mM Glutathione, 50 mM Tris, pH 8.0, 150 mM NaCl and 0.01% Triton X-100. The purified proteins were dialyzed into a buffer containing 20 mM Tris, pH 7.5, 150 mM NaCl and 20% Glycerol.
Biochemical Assay Protocol and Results
The compounds were serially diluted in DMSO using three-fold dilutions to stock concentrations ranging typically from 50 μM to 20 nM (final concentrations in the assay range from 1 μM to 0.4 nM). The c-Raf biochemical assay was performed as a radioactive filtermat assay in 96-well Costar polypropylene plates (Costar 3365). The plates were loaded with 75 μL solution containing 50 mM HEPES pH 7.5, 70 mM NaCl, 80 ng of Lck/c-Raf and 1 μg MEK-1. Subsequently, 2 μL of the serially diluted individual compounds were added to the reaction, prior to the addition of ATP. The reaction was initiated with 25 μL ATP solution containing 5 μM ATP and 0.3 μCi [33P]-ATP. The plates were sealed and incubated at 32° C. for 1 hour. […] The filters were dried in a microwave, soaked in scintillation fluid and read in a Wallac 1205 Betaplate Counter (Wallac Inc., Atlanta, Ga., U.S.A.). The results were expressed as percent inhibition. % Inhibition=[[…]]×100 where • Tib=(counts per minute with inhibitor)−(background) • Ti=(counts per minute without inhibitor)−(background)

Compound | inhibition of c-Raf kinase [%] | inhibition of c-Raf kinase (listed as example 152) [%] | inhibition of c-Raf kinase (listed as example 151) [%]
CNC(=O)c1cc(Oc2ccc(NC(=O)Nc3ccc4c(c3)C(F)(F)OC(F)(F)O4)c(S(C)(=O)=O)c2)ccn1 [Example 152, N-Methyl-4-[3-(methylsulfonyl)-4-({[(2.2,4,4-tetrafluoro-4H-1,3-benzodioxin-6-yl)amino]-carbonyl}amino)phenoxy]pyridine-2-carboxamide] | > 80 | > 40 | –
N-methyl-4-[3-({[(2,2,4,4-tetrafluoro-4H-1,3-benzodioxin-6-yl)amino]carbonyl}amino)phenoxy]pyridine-1-oxo-2-carboxamide [Example 151] | > 80 | – | > 40
